The results in this text go back to PubChem BioAssay AID330 (DTP/NCI, 2004).

The list shows only some results of the screen, not a fair sample: it is rich in T/C values a quarter to a half above the control, in often repeated tests (any T/C) and in doses without a T/C. Further doses and runs are listed elsewhere. T/C: endpoint of the treated group in % of that of the vehicle group. Some doses have a count of surviving animals in place of a T/C: the source files T/C as zero there, which appears to mark a toxic dose or a test without result, not a measured value. Some doses without a T/C left all or most animals alive at the check, yet need not have been tolerated: the source hardly ever lists a survival T/C far under the control, and the zero likely stands for such cases as well. Survivors were counted at the toxicity check, usually on the fifth day, unless a day is given; later deaths do not show. Schedule codes are those of the source, taken here to give the interval after Q, in days (D) or hours (H), and the number of doses after X. Some doses were run more than once; the results are listed from low to high. For survival time, the PubChem record calls one and a half times the control and up active, and a quarter to a half above the control has no call in these data; cut-offs in other NCI protocols can differ. Some T/C values are followed by the survivors on the day toxicity was checked, most often the fifth; where none is given, no animal had died by that day.

This assay deals with P388 leukemia ip, CD2F1 mice, survival T/C. The assay is described as follows: NCI In Vivo Anticancer Drug Screen. Data for tumor model P388 Leukemia (intraperitoneal) in CD2F1 (CDF1) mice. To be noted: T/C endpoint: median survival time, higher T/C = longer survival.
The mark [1] stands for this setting: dose: 25.0 mg/kg/injection, schedule: Q01DX005 (ip), vehicle: Klucel (hydroxypropylcellulose) (HPC).
The mark [2] stands for this setting: dose: 50.0 mg/kg/injection, schedule: Q01DX005 (ip), vehicle: Klucel (hydroxypropylcellulose) (HPC).
[3] abbreviates: dose: 100.0 mg/kg/injection, schedule: Q01DX005 (ip), vehicle: Klucel (hydroxypropylcellulose) (HPC).
The mark [4] stands for this setting: dose: 200.0 mg/kg/injection, schedule: Q01DX005 (ip), vehicle: Klucel (hydroxypropylcellulose) (HPC).
Where [5] appears, read: dose: 100.0 mg/kg/injection, schedule: Q01DX005 (ip), vehicle: saline with Tween-80.
The mark [6] stands for this setting: dose: 200.0 mg/kg/injection, schedule: Q01DX005 (ip), vehicle: saline with Tween-80.
[7] abbreviates: dose: 6.25 mg/kg/injection, schedule: Q01DX005 (ip), vehicle: Klucel (hydroxypropylcellulose) (HPC).

Take `O=c1[nH]nc(SCc2ccc(Cl)cc2Cl)c(=O)[nH]1`: the survivor count was 6 of 6 under setting [1], 6 of 6 under setting [2], 6 of 6 under setting [3] and 6 of 6 under setting [4].
As to `CC(C)CC(C)NC(C)CC(C)C` (centres undefined), the survivor count is, setting by setting: (dose: 100.0 mg/kg/injection, schedule: Q01DX005 (ip), vehicle: saline) 0 of 6; (dose: 200.0 mg/kg/injection, schedule: Q01DX005 (ip), vehicle: saline) 0 of 6.
For `COc1cc2cc3c(c(O)c2c(OC)c1OC)C(=O)CC(C)(C)C3`, under setting [5], the survivor count was 5 of 5.
For `Cc1ccc(S(=O)(=O)Nc2ccc(-c3cc4cc(Cl)ccc4o3)cc2)cc1`, the survivor count is, setting by setting: (dose: 50.0 mg/kg/injection, schedule: Q01DX005 (ip), vehicle: saline with Tween-80) 6 of 6; under setting [5], 6 of 6; under setting [6], 6 of 6.
As for `O=C1CC2(Cl)CN3c4ccccc4C(=O)CC3(Cl)CN2c2ccccc21` (centres undefined), the survivor count (dose: 100.0 mg/kg/injection, schedule: Q04DX003 (ip), vehicle: alcohol) is recorded as 2 of 6; the survivor count (dose: 200.0 mg/kg/injection, schedule: Q04DX003 (ip), vehicle: alcohol) was 0 of 6; the survivor count (dose: 400.0 mg/kg/injection, schedule: Q04DX003 (ip), vehicle: alcohol) is given as 0 of 6.
In the case of `C[n+]1c(-c2cc(Cl)cc(Cl)c2)c2cc(N)ccc2c2ccccc21`, under “dose: 50.0 mg/kg/injection, schedule: Q01DX009 (ip), vehicle: water”, the survivor count is 3 of 6.
Turning to `COc1cc(C)ccc1C1=NC(C)(c2ccc(C)cc2OC)NC1=S` (centres undefined), the survivor count (dose: 150.0 mg/kg/injection, schedule: Q01DX009 (ip), vehicle: Klucel (hydroxypropylcellulose) (HPC)) is recorded as 5 of 6.
As to `N=C(N)c1ccc2cc(/C=C/c3cc4ccc(C(=N)N)cc4o3)[nH]c2c1`, the T/C by setting is: (dose: 6.25 mg/kg/injection, schedule: Q04DX003 (ip), vehicle: suspension in saline) 142 % of control; (dose: 12.5 mg/kg/injection, schedule: Q04DX003 (ip), vehicle: saline) 131 % of control [5 of 6 alive]; (dose: 12.5 mg/kg/injection, schedule: Q04DX003 (ip), vehicle: suspension in saline) 136 % of control; (dose: 25.0 mg/kg/injection, schedule: Q04DX003 (ip), vehicle: saline) 141 % of control; (dose: 25.0 mg/kg/injection, schedule: Q04DX003 (ip), vehicle: suspension in saline) 142 % of control. Moreover, the survivor count (dose: 100.0 mg/kg/injection, schedule: Q04DX003 (ip), vehicle: suspension in saline) is listed as 6 of 6; the survivor count (dose: 200.0 mg/kg/injection, schedule: Q04DX003 (ip), vehicle: suspension in saline) is on record as 1 of 6; the survivor count (dose: 400.0 mg/kg/injection, schedule: Q04DX003 (ip), vehicle: suspension in saline) is listed as 0 of 6.
As to `COC(/C=N/OC(C)=O)c1ccccc1` (centres undefined), the survivor count runs as follows: (dose: 100.0 mg/kg/injection, schedule: Q04DX003 (ip), vehicle: saline with Tween-80) 5 of 6 and 6 of 6; (dose: 200.0 mg/kg/injection, schedule: Q04DX003 (ip), vehicle: saline with Tween-80) 1 of 6 and 2 of 6; (dose: 400.0 mg/kg/injection, schedule: Q04DX003 (ip), vehicle: saline with Tween-80) 0 of 6.
As to `CCCCCCCCCCC(OC(C)=O)C1CCC(C2CCC(C(O)CCCCCCCCCCCCC3C=C(C)OC3=O)O2)O1` (centres undefined), the T/C was 135 % of control (dose: 0.5 mg/kg/injection, schedule: Q01DX005 (ip), vehicle: distilled water + Tween-80); 138 % of control (dose: 1.0 mg/kg/injection, schedule: Q01DX005 (ip), vehicle: distilled water + Tween-80); 133 % of control (dose: 1.0 mg/kg/injection, schedule: Q01DX005 (ip), vehicle: water); 135 % of control (dose: 2.0 mg/kg/injection, schedule: Q01DX005 (ip), vehicle: water). For the same compound, the survivor count (dose: 2.0 mg/kg/injection, schedule: Q01DX005 (ip), vehicle: distilled water + Tween-80) is 4 of 5 and the survivor count (dose: 4.0 mg/kg/injection, schedule: Q01DX005 (ip), vehicle: distilled water + Tween-80) is recorded as 0 of 5.
`CN1CCN(c2ccc([N+](=O)[O-])c3no[n+]([O-])c23)CC1`: the T/C by setting is: (dose: 5.0 mg/kg/injection, schedule: Q01DX009 (ip), vehicle: saline) 126 % of control; (dose: 10.0 mg/kg/injection, schedule: Q01DX009 (ip), vehicle: saline) 134 % of control.
On to `CC(N)C12CC3CC(CC(C3)C1)C2` (centres undefined), for which the survivor count runs as follows: (dose: 200.0 mg/kg/injection, schedule: Q04DX002 (ip), vehicle: suspension in saline) 0 of 6; (dose: 400.0 mg/kg/injection, schedule: Q04DX002 (ip), vehicle: suspension in saline) 0 of 6.
In the case of `Cc1ccc(C)c2c1C(O)(C#Cc1ccccc1)c1ccccc1C2(O)C#Cc1ccccc1` (centres undefined), the survivor count (dose: 200.0 mg/kg/injection, schedule: Q01DX009 (ip), vehicle: saline with Tween-80) was 6 of 6.
Take `S=C(NCCNC(=S)[S][Sn]([c]1ccccc1)([c]1ccccc1)[c]1ccccc1)[S][Sn]([c]1ccccc1)([c]1ccccc1)[c]1ccccc1`: the T/C reads like this: (dose: 11.0 mg/kg/injection, schedule: Q01DX009 (ip), vehicle: saline with Tween-80) 131 % of control; (dose: 16.5 mg/kg/injection, schedule: Q01DX009 (ip), vehicle: saline with Tween-80) 133 % of control; (dose: 25.0 mg/kg/injection, schedule: Q01DX009 (ip), vehicle: saline with Tween-80) 136 % of control; (dose: 37.5 mg/kg/injection, schedule: Q01DX009 (ip), vehicle: saline with Tween-80) 136 % of control.
Take `Cn1c(=O)[nH]c(=O)c2nc(-c3ccccc3)cnc21`: the survivor count (dose: 200.0 mg/kg/injection, schedule: Q04DX002 (ip), vehicle: Klucel (hydroxypropylcellulose) (HPC)) is 6 of 6.
As for `COc1cc2c(c(OC)c1OC)-c1ccc(OC)c(=O)cc1[C@@H](N(C)C)CC2`, the T/C (dose: 20.0 mg/kg/injection, schedule: Q01DX009 (ip), vehicle: Klucel (hydroxypropylcellulose) (HPC)) is 130 and 131 % of control [5 of 6 alive]. The survivor count (dose: 40.0 mg/kg/injection, schedule: Q01DX009 (ip), vehicle: Klucel (hydroxypropylcellulose) (HPC)) is on record as 5 of 6.
On to `Nc1nc(N)n2c(N)nnc2n1`, for which the survivor count (dose: 400.0 mg/kg/injection, schedule: Q01DX009 (ip), vehicle: saline) is on record as 6 of 6.
Consider `CC(C)(C)OOC(=O)c1ccccc1O`, for which, for the setting “dose: 400.0 mg/kg/injection, schedule: Q04DX003 (ip), vehicle: saline sonified”, the survivor count was 3 of 6.
Consider `CC1(C)[C@@H]2CC[C@]3(C)[C@H]4CC[C@]5(C)[C@@H](O)CC[C@H]5[C@@H]4CC[C@]3(O2)[C@@H]1O`, for which the survivor count under setting [6] is recorded as 6 of 6.
For `CS(=O)(=O)OCC(O)C(O)C(OS(C)(=O)=O)C(O)COS(C)(=O)=O` (centres undefined), where the note is “dose: 200.0 mg/kg/injection, schedule: Q04DX003 (ip), vehicle: Klucel (hydroxypropylcellulose) (HPC)”, the survivor count was 6 of 6.
On to `CCS/C(SC)=C(/c1ccccc1)[P+](c1ccccc1)(c1ccccc1)c1ccccc1`, for which the T/C is, setting by setting: (dose: 1.56 mg/kg/injection, schedule: Q01DX005 (ip), vehicle: Klucel (hydroxypropylcellulose) (HPC)) 140 % of control; under setting [7], 126 % of control. Besides, the survivor count reads like this: under setting [7], 5 of 6; (dose: 12.5 mg/kg/injection, schedule: Q01DX005 (ip), vehicle: Klucel (hydroxypropylcellulose) (HPC)) 0 of 6; under setting [1], 3 of 6; under setting [2], 2 of 6; under setting [3], 0 of 6; under setting [4], 0 of 6.
Consider `CC1(c2ccccc2)CCCC(C#N)C1=N` (centres undefined), for which the survivor count by setting is: (dose: 100.0 mg/kg/injection, schedule: Q01DX001 (ip), vehicle: Klucel (hydroxypropylcellulose) (HPC)) 3 of 6; (dose: 200.0 mg/kg/injection, schedule: Q01DX001 (ip), vehicle: Klucel (hydroxypropylcellulose) (HPC)) 2 of 6; (dose: 400.0 mg/kg/injection, schedule: Q01DX001 (ip), vehicle: Klucel (hydroxypropylcellulose) (HPC)) 0 of 6.
